Measured values taken from PubChem BioAssay AID588499 (NMMLSC, 2011).
About 610 (0.17%) of roughly 360,000 compounds were called active. Inconclusive results, whose numbers are uncertain, are shown with a selection of clear calls. No stated cut-off is given here; in the data, active means inhibition above about 30%; inconclusive means no clear call, values can overlap the other calls; inactive means below that.

Each molecule was assayed on Botulinum neurotoxin type A light chain protease (Clostridium botulinum A str. ATCC 3502) (assay: blockers of BoNT/A LC substrate cleavage – biochemical, flow cytometry, MLPCN library, primary screen (AID 588499; further: plate controls were buffer without enzyme for full effect and enzyme alone for no effect)). Settings: multiplex microsphere protease substrate cleavage, at 10 µM, stronger effect = higher value.
For O=C(CN1C(=O)COc2ccccc21)N(Cc1cccnc1)Cc1cccc(F)c1, the inhibition was inconclusive: -2.4%.
For O=C(COc1ccc(S(=O)(=O)NC2CCCCC2)cc1)NC1CCCCC1, the inhibition was inactive: -1.6%.
With COc1ccc(N2C(=O)CCC2=O)cc1 the inhibition was inconclusive: 3.9%.
With O=[N+]([O-])c1ccc(C2CCCC/C2=N\OCc2cccc(F)c2)c([N+](=O)[O-])c1 (configuration not stated) the inhibition was inconclusive: -3.6%.
In the case of Cc1ccc(NC(=O)C2=C(C(=O)O)CCCC2)cc1Br, the inhibition is reported as inactive: -44.4%.
With Cn1c(N)c(C(=O)CSc2n[nH]c(N)n2)c(=O)n(C)c1=O the inhibition was inactive: -2.3%.
For CCC(C(=O)NCc1ccc(C)cc1)c1ccccc1 (configuration not stated), the inhibition was inconclusive: -1.2%.
In the case of CC(=O)N1CC[n+]2c(-c3ccc(Cl)cc3)csc21, the inhibition is reported as inactive: 0%.
With CC1CCCN(S(=O)(=O)c2ccc(C(=O)Nc3sc4c(c3C(N)=O)CCN(C)C4)cc2)C1 (configuration not stated) the inhibition was inconclusive: 0%.
In the case of Cc1c(C(=O)O)sc(S(=O)(=O)N2CCN(C(=O)Cc3ccccc3Cl)CC2)c1C(=O)O, the inhibition is reported as inactive: 1%.
CSc1nnnn1-c1c(C)cc(C)cc1C was tested, and the inhibition was inconclusive: -4.4%.
CCc1nc2cc(Cl)c(Cl)cc2[nH]1 was tested, and the inhibition was inconclusive: -0.2%.
CCCSc1nc2sc3c(c2c(=O)[nH]1)CCN(Cc1ccccc1)C3 was tested, and the inhibition was active: 32.3%.
For COc1ccccc1C1C=C(c2ccccc2)Nc2nnnn21 (configuration not stated), the inhibition was inconclusive: 0.5%.
With CCOC(=O)C1=C(c2ccccc2)N=c2s/c(=C\c3cc(OC)c(OC)c(OC)c3)c(=O)n2C1c1cccs1 (configuration not stated) the inhibition was active: 41.1%.
Cc1cc(-c2nc(C)c(C(=O)NNC(=O)NC(C)C)s2)no1 was tested, and the inhibition was inconclusive: -10.5%.
With COc1ccc(NS(=O)(=O)Cc2ccccc2Cl)cn1 the inhibition was inconclusive: -4.3%.
With CCCOc1ccc(N2C(=O)CC(N(CCCO)C(=O)CC)C2=O)cc1 (configuration not stated) the inhibition was inconclusive: 8.1%.
Cc1ccc(NC(=O)c2ccc(OCC3CCCO3)cc2)nc1 (configuration not stated) was tested, and the inhibition was inconclusive: 10.3%.
In the case of CN1C(=S)SC(N(O)C(=O)NC2CCCCC2)C1(C)C (configuration not stated), the inhibition is reported as inconclusive: 1.8%.
With Fc1ccc(-c2nc3ccc(Br)cn3c2Cc2ccsc2)cc1 the inhibition was active: 32%.
In the case of N/C(Cn1nnc(-c2ccccc2)n1)=N\O, the inhibition is reported as inconclusive: -9.7%.
With COc1ccc(NS(=O)(=O)c2cc([N+](=O)[O-])ccc2NN=Cc2ccccc2OCC(=O)O)cc1 the inhibition was inactive: -2.9%.
With CC1(C(=O)O)CCC(C(=O)Nc2ccccc2O)C1(C)C (configuration not stated) the inhibition was inconclusive: -0.6%.
COC(=O)c1cc(NC(=O)c2cc(-c3ccc(C(F)(F)F)cc3)oc2C(F)(F)F)ccc1N1CCOCC1 was tested, and the inhibition was inconclusive: -19.9%.
CC(NC(=O)c1cc(-c2cccs2)on1)c1ccccc1 (configuration not stated) was tested, and the inhibition was inconclusive: -1%.
CC(C)(C)C(=O)Nc1ccccc1C(=O)Nc1cc(Cl)ccc1Cl was tested, and the inhibition was inactive: -1%.
With COc1ccc(C2SCC(=O)Nc3c2c(=O)[nH]n3C2CCCCCC2)cc1OC (configuration not stated) the inhibition was inconclusive: 3.5%.
For COc1ccc(OC)c(S(=O)(=O)N2CCC(C(=O)NCCC3=CCCCC3)CC2)c1, the inhibition was inconclusive: -5.6%.
In the case of Cn1c(-n2c(CCCN3C(=O)c4ccccc4C3=O)nc3ccccc3c2=O)nc2ccccc21, the inhibition is reported as inactive: 0%.
With CCOC(=O)c1cnc(-n2nc(C)cc2C)nc1Nc1cccc(C(=O)O)c1 the inhibition was inactive: 1.1%.
With Cc1ccc(C=NNC(=O)C(=O)Nc2ccc(Cl)c([N+](=O)[O-])c2)cc1 the inhibition was inactive: -0.8%.
For CC1(C(=O)Nc2ccc3ccccc3c2)CCC(=O)N1CCCn1ccnc1 (configuration not stated), the inhibition was inactive: 0%.
In the case of COc1cc(CN2CCCCCC2)cc(Br)c1O, the inhibition is reported as inconclusive: -4.9%.
In the case of O=c1oc2ccccc2cc1-c1csc(Cc2nc(-c3ccc(Br)cc3)cs2)n1, the inhibition is reported as inconclusive: 1%.
O=C(COc1ncnc2c(Cl)cc(Cl)cc12)N1CCCCC1 was tested, and the inhibition was inconclusive: -2.3%.
COc1ccc(S(=O)(=O)N2CCC(C)CC2)cc1OC was tested, and the inhibition was inconclusive: 4%.
In the case of Cn1nc(C(F)(F)F)c(C(=O)Nc2ccc(C(F)(F)F)cc2)c1Cl, the inhibition is reported as inactive: -0.3%.
In the case of Nc1nc(-c2ccccc2)nn1C(=O)Cc1ccccc1, the inhibition is reported as inactive: -0.2%.
With Cc1ccc(N2C(=O)C3C(c4ccccc4)(C2=O)C3(c2ccccc2)c2ccccc2)cc1 (configuration not stated) the inhibition was inconclusive: 1.7%.
For NC(=O)C1(N2CCCCC2)CCN(Cc2ccc(Br)cc2)CC1, the inhibition was inconclusive: -1.1%.
With COC(=O)c1sccc1S(=O)(=O)Nc1ccc(C)cc1 the inhibition was inconclusive: -22%.
With CCOC(=O)C1CCN(C(=O)c2ccc(CNS(=O)(=O)c3ccc(C)cc3)cc2)CC1 the inhibition was inactive: 0.6%.
In the case of Cc1ccc(-c2nc3ccc(Cl)cn3c2Cc2cccc(F)c2)cc1, the inhibition is reported as inactive: 0.7%.
Cc1cccc(C(=O)Nc2cccnc2Cl)c1 was tested, and the inhibition was active: 65.8%.
In the case of CC(=O)N/C(=C\c1ccccc1)C(=O)OCC(=O)NC(=O)c1ccccc1, the inhibition is reported as inconclusive: 4.3%.
In the case of O=C(c1ccc(=O)oc1)N1CCN(C(c2ccccc2)c2ccccc2)CC1, the inhibition is reported as inconclusive: -1.6%.
In the case of COc1ccc(S(=O)(=O)N2CCCC(C(=O)NCc3ccccc3)C2)cc1 (configuration not stated), the inhibition is reported as inactive: -2.7%.
For O=C(CSc1nnc(SCc2cccc3ccccc23)s1)N/N=C/c1c[nH]c2ccccc12, the inhibition was inactive: 0.8%.
In the case of Cc1ccc(OCC(=O)N(C)CCc2ccccn2)cc1, the inhibition is reported as inconclusive: -1.4%.
In the case of CCSc1ccccc1C(=O)NCc1ccc(S(N)(=O)=O)cc1, the inhibition is reported as inactive: -0.6%.
For Cc1cccn2c(=O)c(C=O)c(Nc3ccccc3)nc12, the inhibition was inactive: -0.5%.
With CCOC(=O)N1CCC(NC(=O)c2ccccc2C(=O)O)CC1 the inhibition was inconclusive: -16.6%.
With Cc1ccc(N(CC(=O)N2CCN(C3CCCCC3)CC2)S(=O)(=O)c2cccnc2)cc1 the inhibition was inconclusive: -2%.
For CC(C)Cn1c(-c2csc3ccccc23)n[nH]c1=S, the inhibition was inactive: 1.8%.
For C/C(=N\N1CCN(c2ccccc2)CC1)c1ccc(O)cc1, the inhibition was inactive: -4.3%.
For Cc1ccccc1C(=O)Nc1ccnn1C1CCN(Cc2cccnc2)CC1, the inhibition was inconclusive: -3.2%.
Cc1cc2ccccc2n1CCNC(=O)C(C)(C)C was tested, and the inhibition was active: 96.1%.
For COc1ccc(OCCOC(=O)CNC(=O)c2cccc(C)c2)cc1, the inhibition was inconclusive: -69.6%.
For COc1cc(/C=C/C(=O)c2c(O)cc(C)oc2=O)cc(OC)c1O, the inhibition was inactive: -0.3%.
With Cc1ccc(CN(C)C(=O)c2ccccc2Oc2ccccc2)o1 the inhibition was inactive: 2.8%.
For C[C@H](CO)N1C[C@H](C)[C@H](CN(C)S(=O)(=O)c2ccc3ccccc3c2)OCc2cnnn2CCCC1=O, the inhibition was inactive: -0.3%.
C=CCc1ccc(OCCOc2cccc3ccc(C)nc23)c(OC)c1 was tested, and the inhibition was active: 45.8%.
In the case of COc1ccccc1NC(=O)N1CCN(c2cc(-c3ccccc3)nc3ncnn23)CC1, the inhibition is reported as inconclusive: 0.4%.
In the case of COc1ccc(CN2C(=O)C(CC(=O)NCC3CCCCC3)CC(C(=O)N(C)C)=C2C)cc1 (configuration not stated), the inhibition is reported as inactive: 0%.
In the case of Cc1onc(-c2c(F)cccc2Cl)c1C(=O)NCCCN1CCOCC1, the inhibition is reported as inconclusive: 3.7%.
In the case of CC(C)C(=O)Nc1ccc(C(=O)NNC(=O)C(c2ccccc2)c2ccccc2)cc1, the inhibition is reported as inconclusive: 2.4%.
In the case of COc1ccc(C(=O)NCC23C=CC(O2)C2C(=O)N(Cc4ccccc4)C(=O)C23)cc1 (configuration not stated), the inhibition is reported as inconclusive: 2.2%.
For O=S1(=O)CC/C(=N\O)c2ccccc21, the inhibition was inconclusive: -4.3%.
With Nc1nc(SCC(=O)c2c(N)n(Cc3ccccc3)c(=O)[nH]c2=O)n[nH]1 the inhibition was inactive: 0%.
COc1ccc(Nc2nc(N)nc(C(F)(F)F)n2)c(OC)c1 was tested, and the inhibition was inactive: 5.5%.
With COc1ccc(-c2cc(C#N)nc(Cl)n2)cc1 the inhibition was inconclusive: 3.2%.
With CSc1nc(N(C)CCO)c2sc3nc(-c4ccco4)c4c(c3c2n1)CCC4 the inhibition was inconclusive: 0.7%.
CCCNC(=O)c1cc(OC)c(OC)cc1[N+](=O)[O-] was tested, and the inhibition was inconclusive: -2.8%.
COC(=O)C1=CN(C)C=C(C(=O)OC)C1c1ccc(O)c(OC)c1 was tested, and the inhibition was inconclusive: -2.7%.
In the case of CCOC(=O)Cc1csc(NC(=O)CSc2nnc(-c3ccc(OC)cc3)n2C)n1, the inhibition is reported as inconclusive: -0.5%.
CCCCCCCCCCS(=O)(=O)N/N=C/c1ccc([N+](=O)[O-])cc1 was tested, and the inhibition was inconclusive: 5.8%.
For O=C(NCc1ccccc1)C1Cc2c(-c3ccc4c(c3)OCO4)ccnc2O1 (configuration not stated), the inhibition was inactive: -0.2%.
O=C(Nc1ccc(Cl)cc1)OC1CN2CCC1CC2 (configuration not stated) was tested, and the inhibition was inconclusive: 12.1%.
In the case of Cc1c(NC(=O)C(C)OC(=O)C(NC(=O)c2ccco2)C(C)C)c(=O)n(-c2ccccc2)n1C (configuration not stated), the inhibition is reported as inconclusive: 1%.
In the case of CCN(CC)CCn1c(=S)[nH]c2cc3c(cc2c1=O)OCO3, the inhibition is reported as inconclusive: -1.7%.
FC(F)(F)c1cccc(Cn2nnnc2-c2cccc(C(F)(F)F)c2)c1 was tested, and the inhibition was inconclusive: -4.3%.
CCC(=O)OC1(Cc2ccc(CC)cc2)CC(C)N(C)CC1C (configuration not stated) was tested, and the inhibition was inconclusive: -41.5%.
In the case of CCN(CC)C(=O)c1ccc(NC(=O)Cn2nc(C)c3ccccc3c2=O)cc1, the inhibition is reported as inconclusive: 0.5%.
With Cc1cccc(C)c1NC(=O)CSc1nnc([C@H](C)NC(=O)OC(C)(C)C)o1 the inhibition was inconclusive: -3.5%.
With Fc1cccc(CNCCc2c[nH]c3ccccc23)c1 the inhibition was inconclusive: 6.9%.
CCN(CC(=O)Nc1ccccc1C(F)(F)F)C(=O)Cc1sc(C)nc1-c1ccc(F)cc1 was tested, and the inhibition was inconclusive: -10.7%.
CC(=O)Nc1ccc(C(F)(F)F)cc1Cl was tested, and the inhibition was inconclusive: 11.6%.
With c1ccc(Oc2ccc(-n3cnnn3)cc2)cc1 the inhibition was inconclusive: 6.7%.
In the case of C(=N\C(/N=C/c1ccco1)c1ccco1)/c1ccco1, the inhibition is reported as inactive: -0.3%.
With CCCOc1ccc(-c2nnn(CC(=O)N3CCCCC3)n2)cc1 the inhibition was inactive: -0.2%.
With CCCc1cc(N2CCCC(C(=O)Nc3cc(Cl)ccc3OC)C2)n2ncnc2n1 (configuration not stated) the inhibition was inconclusive: 0.2%.
